# Experimental data from paper PMC7862700.
# Only a part is listed here, and it is no random draw. At the low end of the ranking the order means little.
# Target: T1, ELK3 (UniProt P41970)
# T1 sequence: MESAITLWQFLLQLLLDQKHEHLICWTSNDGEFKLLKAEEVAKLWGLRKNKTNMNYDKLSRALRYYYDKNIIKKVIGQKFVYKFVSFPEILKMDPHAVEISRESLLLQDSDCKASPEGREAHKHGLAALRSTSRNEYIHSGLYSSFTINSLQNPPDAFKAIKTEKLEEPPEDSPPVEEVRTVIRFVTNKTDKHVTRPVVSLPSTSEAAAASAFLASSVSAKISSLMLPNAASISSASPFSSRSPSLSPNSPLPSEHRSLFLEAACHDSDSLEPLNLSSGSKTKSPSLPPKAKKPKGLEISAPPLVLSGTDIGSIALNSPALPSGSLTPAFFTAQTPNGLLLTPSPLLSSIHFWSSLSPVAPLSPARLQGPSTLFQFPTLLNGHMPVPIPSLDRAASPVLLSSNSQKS
# Test: DAPPL (digital affinity profiling via proximity ligation, sequencing)
# Settings: 10 mM Tris-HCl pH 7.5, 50 mM NaCl, 1 mM DTT, 4% glycerol, room temperature, 30 min; GST-TFs on glutathione beads, 16-mer random dsDNA library, 0.1% …; high values mean tight binding; double strand, one strand shown; scale: fold enrichment (6-mer frequency, TF over GST control)
row,Sequence,binding signal
1,CCGTGC,0.616
2,GGGCCG,0.607
3,GTCGAG,0.422
4,GACTAG,0.801
5,CGTCGG,0.516
6,AGGTGA,0.591
7,CGGCGA,0.698
8,GTGAAG,0.522
9,TGGACG,0.807
10,CGGACA,0.738
11,ATGGAG,0.513
12,CGTAAG,0.788
13,AGGCAA,0.723
14,GCCATG,0.783
15,TAGGCG,0.55
16,ATTGGA,0.911
17,TGGCGG,0.776
18,GGGTCT,0.859
19,GTCGTC,0.781

row,Sequence,binding signal
1,CAGGCG,0.301
2,AGCGGT,0.692
3,GCGTAA,0.803
4,GGGCAA,0.92
5,GAGGAC,0.616
6,CGAGGA,0.675
7,TCAGTC,0.692
8,GTCGGA,0.184
9,GGAGGG,0.309
10,GGCCAC,0.871
11,GGGCAC,0.81
12,GGAGGC,0.265
13,GGTTGG,0.757
14,CGGGGG,0.469
15,TGGGAG,0.422
16,TGTCGT,0.726
17,TCGCAG,0.915
18,GCTGAG,0.694
19,CCAGAG,0.699

# Target: T2, SPIC (UniProt Q8N5J4)
# T2 sequence: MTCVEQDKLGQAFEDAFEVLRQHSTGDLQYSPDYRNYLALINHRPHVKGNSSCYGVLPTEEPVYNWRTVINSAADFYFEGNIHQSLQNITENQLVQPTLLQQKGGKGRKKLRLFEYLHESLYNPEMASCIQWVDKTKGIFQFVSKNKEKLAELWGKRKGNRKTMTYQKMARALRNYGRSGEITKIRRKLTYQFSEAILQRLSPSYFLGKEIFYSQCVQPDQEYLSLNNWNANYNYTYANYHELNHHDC
# Test: as above
# Settings: 10 mM Tris-HCl pH 7.5, 50 mM NaCl, 1 mM DTT, 4% glycerol, room temperature, 30 min; GST-TFs on glutathione beads, 16-mer random dsDNA library, 0.1% …; high values mean tight binding; double strand, one strand shown; scale: fold enrichment (6-mer frequency, TF over GST control)
row,Sequence,binding signal
1,CCGTGC,0.635
2,GGGCCG,0.605
3,GTCGAG,0.464
4,GACTAG,0.76
5,CGTCGG,0.425
6,AGGTGA,0.501
7,CGGCGA,0.658
8,GTGAAG,0.541
9,TGGACG,0.933
10,CGGACA,0.668
11,ATGGAG,0.589
12,CGTAAG,0.746
13,AGGCAA,0.82
14,GCCATG,0.753
15,TAGGCG,0.646
16,ATTGGA,0.945
17,TGGCGG,0.758
18,GGGTCT,0.969
19,GTCGTC,0.782

row,Sequence,binding signal
1,CAGGCG,0.29
2,AGCGGT,0.827
3,GCGTAA,0.808
4,GGGCAA,0.705
5,GAGGAC,0.603
6,CGAGGA,0.676
7,TCAGTC,0.638
8,GTCGGA,0.195
9,GGAGGG,0.346
10,GGCCAC,0.993
11,GGGCAC,0.869
12,GGAGGC,0.245
13,GGTTGG,0.779
14,CGGGGG,0.456
15,TGGGAG,0.575
16,TGTCGT,0.902
17,TCGCAG,0.864
18,GCTGAG,0.631
19,CCAGAG,0.656

# Target: T3, ETS2 (UniProt P15036)
# T3 sequence: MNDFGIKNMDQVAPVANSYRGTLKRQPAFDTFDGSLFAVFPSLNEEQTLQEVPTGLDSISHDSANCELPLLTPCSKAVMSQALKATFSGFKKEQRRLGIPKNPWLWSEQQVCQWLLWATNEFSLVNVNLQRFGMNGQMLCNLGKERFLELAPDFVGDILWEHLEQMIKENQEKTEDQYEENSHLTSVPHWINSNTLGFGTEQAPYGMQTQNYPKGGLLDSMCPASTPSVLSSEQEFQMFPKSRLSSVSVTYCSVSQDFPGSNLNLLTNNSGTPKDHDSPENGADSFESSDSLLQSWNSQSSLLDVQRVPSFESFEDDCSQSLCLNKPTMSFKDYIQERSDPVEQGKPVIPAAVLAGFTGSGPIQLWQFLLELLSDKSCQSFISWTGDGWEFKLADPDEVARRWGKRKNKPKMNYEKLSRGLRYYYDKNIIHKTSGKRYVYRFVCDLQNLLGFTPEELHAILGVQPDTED
# Test: as above
# Settings: 10 mM Tris-HCl pH 7.5, 50 mM NaCl, 1 mM DTT, 4% glycerol, room temperature, 30 min; GST-TFs on glutathione beads, 16-mer random dsDNA library, 0.1% …; high values mean tight binding; double strand, one strand shown; scale: fold enrichment (6-mer frequency, TF over GST control)
row,Sequence,binding signal
1,CCGTGC,0.581
2,GGGCCG,0.64
3,GTCGAG,0.439
4,GACTAG,0.752
5,CGTCGG,0.443
6,AGGTGA,0.567
7,CGGCGA,0.777
8,GTGAAG,0.566
9,TGGACG,0.826
10,CGGACA,0.788
11,ATGGAG,0.576
12,CGTAAG,0.756
13,AGGCAA,0.727
14,GCCATG,0.729
15,TAGGCG,0.631
16,ATTGGA,0.85
17,TGGCGG,0.712
18,GGGTCT,0.967
19,GTCGTC,0.764

row,Sequence,binding signal
1,CAGGCG,0.255
2,AGCGGT,0.71
3,GCGTAA,0.851
4,GGGCAA,0.908
5,GAGGAC,0.606
6,CGAGGA,0.66
7,TCAGTC,0.597
8,GTCGGA,0.165
9,GGAGGG,0.324
10,GGCCAC,1
11,GGGCAC,0.822
12,GGAGGC,0.245
13,GGTTGG,0.759
14,CGGGGG,0.435
15,TGGGAG,0.406
16,TGTCGT,0.812
17,TCGCAG,0.905
18,GCTGAG,0.667
19,CCAGAG,0.657

# Target: T4, ETV3 (UniProt P41162-2)
# T4 sequence: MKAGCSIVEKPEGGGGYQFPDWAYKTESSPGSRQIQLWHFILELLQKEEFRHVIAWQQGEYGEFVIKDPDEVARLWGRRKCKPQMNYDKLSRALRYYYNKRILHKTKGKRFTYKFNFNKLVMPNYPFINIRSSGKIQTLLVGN
# Test: as above
# Settings: 10 mM Tris-HCl pH 7.5, 50 mM NaCl, 1 mM DTT, 4% glycerol, room temperature, 30 min; GST-TFs on glutathione beads, 16-mer random dsDNA library, 0.1% …; high values mean tight binding; double strand, one strand shown; scale: fold enrichment (6-mer frequency, TF over GST control)
row,Sequence,binding signal
1,CCGTGC,0.583
2,GGGCCG,0.591
3,GTCGAG,0.43
4,GACTAG,0.692
5,CGTCGG,0.418
6,AGGTGA,0.53
7,CGGCGA,0.757
8,GTGAAG,0.554
9,TGGACG,0.826
10,CGGACA,0.817
11,ATGGAG,0.544
12,CGTAAG,0.713
13,AGGCAA,0.722
14,GCCATG,0.845
15,TAGGCG,0.552
16,ATTGGA,0.854
17,TGGCGG,0.773
18,GGGTCT,0.911
19,GTCGTC,0.75

row,Sequence,binding signal
1,CAGGCG,0.251
2,AGCGGT,0.702
3,GCGTAA,0.845
4,GGGCAA,0.792
5,GAGGAC,0.607
6,CGAGGA,0.651
7,TCAGTC,0.58
8,GTCGGA,0.158
9,GGAGGG,0.305
10,GGCCAC,0.916
11,GGGCAC,0.837
12,GGAGGC,0.258
13,GGTTGG,0.725
14,CGGGGG,0.494
15,TGGGAG,0.425
16,TGTCGT,0.832
17,TCGCAG,0.913
18,GCTGAG,0.627
19,CCAGAG,0.65
